Results from patent US7888090B2, “Mutants of O6-alkylguanine-DNA alkyltransferase” (Ecole Polytechnique Federale de Lausanne, priority 2004, dated 2011).

Assay: Periplasmic expression / stability under oxidizing conditions
Parameters: species or system E. coli
Settings: compared to PGEA-hAGT
Method: The activities towards AGT substrates are measured after purification without addition of reducing agents such as dithiothreitol or beta-mercaptoethanol. Alternatively, the activities of mutant AGT and wild type human are compared after their export into cellular compartments with oxidising redox potential (e.g. the periplasm of E. coli due to their fusion to appropriate signal sequences. Activity towards AGT substrates under reducing and oxidising conditions is compared by performing the reactions in the presence or absence of reducing agents such as dithiothreitol or beta-mercaptoethanol.
The mutant AGT gene of Example 1 is amplified and cloned as described in Example 1 with the oligonucleotides SEQ ID NO:3, SEQ ID NO:10 and SEQ ID NO:4, SEQ ID NO:9 causing the further mutation Cys62Ala in the gene upon their incorporation by PCR. Protein expression, purification and determination of yield is carried out as described in Example 1. […] The supernatant is directly subjected to quantification of protein yield via SDS-PAGE and activity assays as described in Example 1.
Stability under oxidizing conditions: The mutant gene is PCR amplified with the primers SEQ ID NO:11 and SEQ ID NO:28 to subclone the gene into pAK100, as described in Example 2. […] The anti-FLAG IgG antibody is used to estimate the total amount of soluble AGT protein, whereas neutravidin quantifies the reactive portion of it. […]

B1: AGTM: AGT mutant Cys62Ala, Gln115Ser, Gln116His, Lys125Ala, Ala127Thr, Arg128Ala, Gly131Lys, Gly132Thr, Met134Leu, Arg135Ser, Cys150Asn, Ser151Ile, Ser152Asn, Asn157Gly, Ser159Glu, truncated after … (protein, UniProt P16455 1-207, looked up, variant C62A Q115S Q116H K125A A127T R128A G131K G132T M134L R135S C150N S151I S152N N157G S159E del183-207)
Methylated-DNA--protein-cystei …: MDKDCEMKRTTLDSPLGKLELSGCEQGLHEIKLLGKGTSAADAVEVPAPAAVLGGPEPLMQATAWLNAYFHQPEAIEEFPVPALHHPVFQQESFTRQVLWKLLKVVKFGEVISYSHLAALAGNPAATAAVKTALSGNPVPILIPCHRVVNINGAVGGYEGGLAVKEWLLAHEGHRLGKPGLG
modifications: His tag
For B1, the “amount of protein from periplasmic expression” value was “two to threefold more”.
